Measurements: PubChem BioAssay AID1347064 (Functional Genomics Laboratory (NCATS/FGL), 2019)
Among all 2,500 compounds or so, about 700 (28%) were called active. All entries are inconclusive by the source's own rule. Clear calls are listed elsewhere. Cut-off not given; nearly all actives show AC50 up to about 23 µM.

test: viability loss in pontine glioma line – cell-based, SU-DIPG-XIII, MIPE5.0, CellTiter-Glo, qHTS, dose response (AID 1347064); settings: CellTiter-Glo ATP luminescence;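 further: cells exposed to compound for 48 hours before the viability read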
Excerpt: Diffuse intrinsic pontine glioma (DIPG) is a rare pediatric brain tumor with a poor prognosis. This diagnosis is typically fatal as the tumor location prohibits surgical removal therefore patients are left with radiotherapy as the only approved therapeutic option. Due to the lack of chemotherapeutic options for this tumor type, we sought to screen a library of investigational and approved agents to determine efficacy in vitro with the goal of finding novel treatments for in vivo testing. The NCATS developed MIPE libraries were used to screen six patient derived DIPG cell lines, JHH-DIPG-1, SU-DIPG-IV, SU-DIPG-VI, SU-DIPG-XIII, SU-DIPG-XVII and SU-DIPG-XXV. Each compound was screened at an 11 concentrations from 47uM to 7.6nM. Top active compounds from this screen were then moved to drug combination screening in order to determine synergistic compounds that could move quickly to clinical trials.
JHH-DIPG-1, SU-DIPG-IV, SU-DIPG-VI, SU-DIPG-XIII, SU-DIPG-XVII and SU-DIPG-XXV were seeded into 1536 well white polystyrene tissue culture treated Corning plates using a MultiDrop Combi dispenser (ThermoFisher Scientific) and small cassette in 5 microL their normal growth media. […] Luminescence readings were taken using a Viewlux (PerkinElmer) with a 2 second exposure time per plate. […]

Question: With `CN(CCCl)CCCl` as the compound, how does the AC50 read?
Answer: inconclusive: 29.5 µM
